Measured values taken from patent US6664231B1 (priority 1993, dated 2003).

Test: general procedure: Fmoc solid-phase peptide synthesis; polystyrene resin, 1% DVB, Fmoc-Rink amide linker, 0.44 mmoles/gram; DIC/HOBt and HBTU/HOBt/DIEA (double coupling)
Details: whole synthesis, HPLC, scale of the general procedure between 0.1 grams and 5 grams of starting resin

Substance | purity (crude or final not stated) [%]
H-KSKVGALIQLFHKK-NH2 | 99

Same assay, conditions: whole synthesis, scale of the general procedure between 0.1 grams and 5 grams of starting resin

Substance | crude HPLC purity [%] | final HPLC purity [%]
H-KSKVGWLIQLFHKKKSKVGWLILLFHKK-NH2 | 31 | –
H-WLIQLK-NH2 | 66 | –
H-KSKVGWLIQLFHKW-NH2 | 50 | –
H-KSKVGALIQLFHKK-NH2 | 64 | –
H-SVHVHISKSKVGWLIQLFHKKIESALRNK-NH2 | 26 | –
H-KSKVGWLI[Phe(4-NH2)]LWHKK-NH2 (SMILES CC[C@H](C)[C@H](NC(=O)[C@H](CC(C)C)NC(=O)[C@H](Cc1c[nH]c2ccccc12)NC(=O)CNC(=O)[C@@H](NC(=O)[C@H](CCCCN)NC(=O)[C@H](CO)NC(=O)[C@@H](N)CCCCN)C(C)C)C(=O)N[C@@H](Cc1ccc(N)cc1)C(=O)N[C@@H](CC(C)C)C(=O)N[C@@H](Cc1c[nH]c2ccccc12)C(=O)N[C@@H](Cc1c[nH]cn1)C(=O)N[C@@H](CCCCN)C(=O)N[C@@H](CCCCN)C(N)=O) | 30 | –
H-KSKVG[dW]LIQLFHKK-NH2 (SMILES CC[C@H](C)[C@H](NC(=O)[C@H](CC(C)C)NC(=O)[C@@H](Cc1c[nH]c2ccccc12)NC(=O)CNC(=O)[C@@H](NC(=O)[C@H](CCCCN)NC(=O)[C@H](CO)NC(=O)[C@@H](N)CCCCN)C(C)C)C(=O)N[C@@H](CCC(N)=O)C(=O)N[C@@H](CC(C)C)C(=O)N[C@@H](Cc1ccccc1)C(=O)N[C@@H](Cc1c[nH]cn1)C(=O)N[C@@H](CCCCN)C(=O)N[C@@H](CCCCN)C(N)=O) | 54 | –
151-161, K @ 151 (V), P @ 152 (G) (KPWLIQLFHKK) | – | 98
PEPTIDE1{V.H.V.H.I.S.K.S.K.V.G.W.L.I.Q.L.F.H.K.K.I.E.[am]}$$$$V2.0 | 18 | –
H-KSKVG[Sar]LIQLFHKK-NH2 (SMILES CC[C@H](C)[C@H](NC(=O)[C@H](CC(C)C)NC(=O)CN(C)C(=O)CNC(=O)[C@@H](NC(=O)[C@H](CCCCN)NC(=O)[C@H](CO)NC(=O)[C@@H](N)CCCCN)C(C)C)C(=O)N[C@@H](CCC(N)=O)C(=O)N[C@@H](CC(C)C)C(=O)N[C@@H](Cc1ccccc1)C(=O)N[C@@H](Cc1c[nH]cn1)C(=O)N[C@@H](CCCCN)C(=O)N[C@@H](CCCCN)C(N)=O) | 88 | –
CD - 153-161 (CWLIQLFHKK) | 83 | 96
H-KSKAGWLIQLFHKK-NH2 | 51 | –
H-KK[Phe(4-NH2)]LIQLKK-NH2 (SMILES CC[C@H](C)[C@H](NC(=O)[C@H](CC(C)C)NC(=O)[C@H](Cc1ccc(N)cc1)NC(=O)[C@H](CCCCN)NC(=O)[C@@H](N)CCCCN)C(=O)N[C@@H](CCC(N)=O)C(=O)N[C@@H](CC(C)C)C(=O)N[C@@H](CCCCN)C(=O)N[C@@H](CCCCN)C(N)=O) | 90 | 98
H-KSKVGKLIQLFHKK-NH2 | 70 | –
H-KSKVGWLI[Phe(4-NH2)][1Nal]FHKK-NH2 (SMILES CC[C@H](C)[C@H](NC(=O)[C@H](CC(C)C)NC(=O)[C@H](Cc1c[nH]c2ccccc12)NC(=O)CNC(=O)[C@@H](NC(=O)[C@H](CCCCN)NC(=O)[C@H](CO)NC(=O)[C@@H](N)CCCCN)C(C)C)C(=O)N[C@@H](Cc1ccc(N)cc1)C(=O)N[C@@H](Cc1cccc2ccccc12)C(=O)N[C@@H](Cc1ccccc1)C(=O)N[C@@H](Cc1c[nH]cn1)C(=O)N[C@@H](CCCCN)C(=O)N[C@@H](CCCCN)C(N)=O) | 30 | –
H-KSKVKALIQLFHKK-NH2 | 75 | –
H-KSKVG[1Nal]LIQLWHKK-NH2 (SMILES CC[C@H](C)[C@H](NC(=O)[C@H](CC(C)C)NC(=O)[C@H](Cc1cccc2ccccc12)NC(=O)CNC(=O)[C@@H](NC(=O)[C@H](CCCCN)NC(=O)[C@H](CO)NC(=O)[C@@H](N)CCCCN)C(C)C)C(=O)N[C@@H](CCC(N)=O)C(=O)N[C@@H](CC(C)C)C(=O)N[C@@H](Cc1c[nH]c2ccccc12)C(=O)N[C@@H](Cc1c[nH]cn1)C(=O)N[C@@H](CCCCN)C(=O)N[C@@H](CCCCN)C(N)=O) | 50 | 97
H-KSKVGWLISLFHKK-NH2 | 34 | –
H-KSKVGWLILLFHKKKSKVGWLIQLFHKK-NH2 | 31 | –
H-KSKVGWLAQLFHKK-NH2 | 70 | –
H-KSKVG[NMeV]LIQLFHKK-NH2 (SMILES CC[C@H](C)[C@H](NC(=O)[C@H](CC(C)C)NC(=O)[C@H](C(C)C)N(C)C(=O)CNC(=O)[C@@H](NC(=O)[C@H](CCCCN)NC(=O)[C@H](CO)NC(=O)[C@@H](N)CCCCN)C(C)C)C(=O)N[C@@H](CCC(N)=O)C(=O)N[C@@H](CC(C)C)C(=O)N[C@@H](Cc1ccccc1)C(=O)N[C@@H](Cc1c[nH]cn1)C(=O)N[C@@H](CCCCN)C(=O)N[C@@H](CCCCN)C(N)=O) | 75 | –

Substance | crude HPLC purity [%] | final HPLC purity [%]
H-KSKVG[Cha]LIQLFHKK-NH2 (SMILES CC[C@H](C)[C@H](NC(=O)[C@H](CC(C)C)NC(=O)[C@H](CC1CCCCC1)NC(=O)CNC(=O)[C@@H](NC(=O)[C@H](CCCCN)NC(=O)[C@H](CO)NC(=O)[C@@H](N)CCCCN)C(C)C)C(=O)N[C@@H](CCC(N)=O)C(=O)N[C@@H](CC(C)C)C(=O)N[C@@H](Cc1ccccc1)C(=O)N[C@@H](Cc1c[nH]cn1)C(=O)N[C@@H](CCCCN)C(=O)N[C@@H](CCCCN)C(N)=O) | 60 | –
H-KKWLIQLKKK-NH2 | 67 | 98
H-KSKVGWLIQLFHKK-NH2 | 69 | 98
H-KSKVGWLILLWHKK-NH2 | 55 | –
PEPTIDE1{K.W.L.I.Q.L.K.[am]}$$$$V2.0 | 63 | –
H-ASKVGWLIQLFHKK-NH2 | 68 | –
Ac-PWLIQLFHKK-OH | 72 | >99
H-KSKVGWLIQAFHKK-NH2 | 53 | –
PEPTIDE1{K.S.K.V.G.[dF].L.I.Q.L.F.H.K.K.[am]}$$$$V2.0 | 51 | –
H-KSKVKFLIQLFHKK-NH2 | 61 | –
H-KSKVKWLIKLFFKFKSKVKWLIKLFFKF-NH2 | 16 | –
H-KKWLIQLFHKP-NH2 | 61 | 98
H-KSKVG[βAla]LIQLFHKK-NH2 (SMILES CC[C@H](C)[C@H](NC(=O)[C@H](CC(C)C)NC(=O)CCNC(=O)CNC(=O)[C@@H](NC(=O)[C@H](CCCCN)NC(=O)[C@H](CO)NC(=O)[C@@H](N)CCCCN)C(C)C)C(=O)N[C@@H](CCC(N)=O)C(=O)N[C@@H](CC(C)C)C(=O)N[C@@H](Cc1ccccc1)C(=O)N[C@@H](Cc1c[nH]cn1)C(=O)N[C@@H](CCCCN)C(=O)N[C@@H](CCCCN)C(N)=O) | 68 | –
H-KSKVGWLILLFHKK-NH2 | 51 | –
H-KSKVGWLIQWFHKK-NH2 | 57 | –
H-KSKVWLIQLFHKK-NH2 | 76 | –
H-KSKVGWLIQLFHKKKSKVGWLIQLFHKK-NH2 | 26 | –
K - K - L - L - L - Q - L - K - K (KKLLLQLKK) | – | 99
H-KSKVGWLIQLFHAK-NH2 | 53 | –
H-KSKVGWLIQLF[1Nal]K[1Nal]-NH2 (SMILES CC[C@H](C)[C@H](NC(=O)[C@H](CC(C)C)NC(=O)[C@H](Cc1c[nH]c2ccccc12)NC(=O)CNC(=O)[C@@H](NC(=O)[C@H](CCCCN)NC(=O)[C@H](CO)NC(=O)[C@@H](N)CCCCN)C(C)C)C(=O)N[C@@H](CCC(N)=O)C(=O)N[C@@H](CC(C)C)C(=O)N[C@@H](Cc1ccccc1)C(=O)N[C@@H](Cc1cccc2ccccc12)C(=O)N[C@@H](CCCCN)C(=O)N[C@@H](Cc1cccc2ccccc12)C(N)=O) | 53 | –

Strings that start with PEPTIDE1 are HELM notation: dots part the residues, brackets hold end groups and non-standard residues. Square brackets hold non-standard residues; d marks the D form. Phe(4-NH2) = Nc1ccc(C[C@H](N)C(=O)O)cc1; 1Nal = N[C@@H](Cc1cccc2ccccc12)C(=O)O; Cha = N[C@@H](CC1CCCCC1)C(=O)O; NMeV = CN[C@H](C(=O)O)C(C)C; βAla = NCCC(=O)O; Sar = CNCC(=O)O
